This passage reports chromatographic logD and logDoct results from patent US20020161528A1, “Tool for lipophilicity determination in drug discovery basic and neutral compounds” (Pfizer Inc., priority 2001, published 2002).

As usually defined, the chromatographic logD is a lipophilicity value derived from retention on a column. Lower therefore signals lower lipophilicity.

Data set [1] can be described thus: physchem. The conditions noted are these: pH 7.4.
For data set [2] the following is noted: pH 7.4; cited from earlier work.

Each structure is given as a SMILES string.

As for `COC(=O)C1=C(C)NC(C)=C(C(=O)OC)C1c1ccccc1[N+](=O)[O-]` [Nifedipine], in data set [1], the chromatographic logD is 2.84. Besides, in data set [2], the logDoct is 3.17.
